In patent publication US6713410B1, “Method for textile treatment for spandex containing fabrics” (E.I. du Pont de Nemours and Co., priority 1997, dated 2004):
Some entries repeat one wording, which the source may state once for all of them. Some ranges recur; such a range may be that of the whole group of compounds.

Assay: Perfume ingredient deposition on spandex-containing cloth versus all-cotton cloth after washing (solvent extraction, gas chromatography)
Conditions: concentration extracted from 95% cotton/5% spandex cloth relative to all-cotton cloth; washed with powder containing 0.5% perfume, line dried overnight
For CC(C)CCCC(C)(C)O [2,6-dimethyl-heptan-2-ol], the Enhancement was “L (if less than 5 or not measurable, it was coded(L))”.
In the case of OCCc1ccccc1 [2-phenylethanol], the Enhancement is reported as “L (if less than 5 or not measurable, it was coded(L))”.
In the case of CCOCOC1CCCCCCCCCCC1 [Boisambrene Forte], the Enhancement is reported as “M (greater than from the all-cotton cloth by a factor of 5 to 20, the result was coded as a medium enhancement (M))”.
With CC(=O)c1cc2c(cc1C)C(C)(C)C(C)CC2(C)C (stereo not drawn) [Tonalid, 1,1,2,4,4,7-hexamethyl-6-acetyl-1,2,3,4-tetrahydronaphthalene] the Enhancement was “M (greater than from the all-cotton cloth by a factor of 5 to 20, the result was coded as a medium enhancement (M))”.
For CC(=O)CCc1ccccc1 [benzyl acetone], the Enhancement was “M (greater than from the all-cotton cloth by a factor of 5 to 20, the result was coded as a medium enhancement (M))”.
In the case of CC(C)=CCCC(C)CCO (stereo not drawn) [citronellol], the Enhancement is reported as “H (If the concentration was greater by 20 or more, it was coded high(H))”.
With CC(=O)OC1CC2CC1C1CC=CC21 (stereo not drawn) [jasmacyclene, tricyclodecenyl acetate] the Enhancement was “H (If the concentration was greater by 20 or more, it was coded high(H))”.
For COC(=O)c1ccccc1O [methyl salicylate], the Enhancement was “L (if less than 5 or not measurable, it was coded(L))”.
For CC(=O)OC(C)(C)C1CC=C(C)CC1 (stereo not drawn) [terpinyl acetate], the Enhancement was “H (If the concentration was greater by 20 or more, it was coded high(H))”.
For CC(C)CCCC(C)CCO (stereo not drawn) [tetrahydrogeraniol], the Enhancement was “H (If the concentration was greater by 20 or more, it was coded high(H))”.
In the case of CCC(C)(O)CCCC(C)C (stereo not drawn) [tetrahydrolinalol], the Enhancement is reported as “H (If the concentration was greater by 20 or more, it was coded high(H))”.
With COc1ccc2ccccc2c1 [yara] the Enhancement was “H (If the concentration was greater by 20 or more, it was coded high(H))”.
